# According to PubChem BioAssay (NCATS):
# Sequences of proteins named here, by UniProt entry; tags and fusion partners are left off. A change or cut given only in a name is not applied to a line headed by its entry.
# UniProt P08684, whole entry, looked up: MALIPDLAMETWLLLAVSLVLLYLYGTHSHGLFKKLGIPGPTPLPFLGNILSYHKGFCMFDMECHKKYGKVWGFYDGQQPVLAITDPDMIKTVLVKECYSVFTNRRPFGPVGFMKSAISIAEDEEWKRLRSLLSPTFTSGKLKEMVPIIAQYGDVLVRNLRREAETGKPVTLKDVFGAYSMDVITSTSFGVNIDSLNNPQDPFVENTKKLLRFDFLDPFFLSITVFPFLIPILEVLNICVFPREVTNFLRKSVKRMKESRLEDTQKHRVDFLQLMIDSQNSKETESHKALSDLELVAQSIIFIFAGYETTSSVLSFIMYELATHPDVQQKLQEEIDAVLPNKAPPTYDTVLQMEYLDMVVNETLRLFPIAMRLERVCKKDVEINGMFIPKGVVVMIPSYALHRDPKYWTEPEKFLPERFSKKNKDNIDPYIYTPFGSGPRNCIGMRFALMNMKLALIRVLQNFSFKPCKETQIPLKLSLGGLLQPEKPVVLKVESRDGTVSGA
# UniProt Q07343: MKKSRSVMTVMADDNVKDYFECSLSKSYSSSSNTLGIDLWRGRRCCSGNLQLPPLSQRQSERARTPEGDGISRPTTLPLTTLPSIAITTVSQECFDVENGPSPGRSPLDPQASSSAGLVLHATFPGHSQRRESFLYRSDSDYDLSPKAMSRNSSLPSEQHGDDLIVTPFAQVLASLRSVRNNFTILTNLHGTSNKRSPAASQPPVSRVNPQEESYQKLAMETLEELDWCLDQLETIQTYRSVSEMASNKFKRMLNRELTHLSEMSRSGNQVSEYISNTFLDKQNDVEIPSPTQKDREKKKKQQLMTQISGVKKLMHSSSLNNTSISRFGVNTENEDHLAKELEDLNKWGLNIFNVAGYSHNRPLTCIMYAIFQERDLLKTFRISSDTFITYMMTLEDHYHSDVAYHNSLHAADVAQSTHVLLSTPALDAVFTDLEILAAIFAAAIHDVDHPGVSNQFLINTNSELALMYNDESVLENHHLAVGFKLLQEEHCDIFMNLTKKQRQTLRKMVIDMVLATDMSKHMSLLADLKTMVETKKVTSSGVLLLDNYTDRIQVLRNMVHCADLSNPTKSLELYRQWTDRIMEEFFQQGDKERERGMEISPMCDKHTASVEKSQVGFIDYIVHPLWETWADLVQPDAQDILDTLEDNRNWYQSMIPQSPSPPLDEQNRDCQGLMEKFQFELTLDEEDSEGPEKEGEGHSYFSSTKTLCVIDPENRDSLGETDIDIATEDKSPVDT
# This list was built around the results that the source calls inconclusive (neither active nor inactive); the mix of calls is not that of the screen. For some assays here: Potencies of inconclusive entries are doubtful fits and often do not repeat. Active and inactive are the calls of the source. Unless noted, calls come from the whole dose curve; as a rule, active = well fitted curve in the direction sought with a large enough effect; inconclusive = small, poorly fitted or top-dose-only effect, or another doubt; inactive = no such curve, though single readings can be large; an effect the other way counts as inactive or inconclusive.
# What was measured:
# [1] = Stat Signaling Pathway (AID 446; active = well fitted curve in either direction with a large enough effect, not every such curve was filed as active; inconclusive = small, poorly fitted or top-dose-only effect, or another doubt;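 note: ME-180 cervical cancer cells given 40 pM IL-6 alongside compound; SIE-controlled beta-lactamase reporter measured as 460/530 nm FRET emission ratio; % is set by controls: 0 for no effect and ±100 for the full control effect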); conditions: ME-180 SIE beta-lactamase reporter, IL-6 stimulated, 5 h; at 7.69 µM (top of the series) unless noted
# Summary of the method: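 Emission at 460 and 530 nm (excitation 405 nm) reports SIE-controlled beta-lactamase in ME-180 cells. Cells received compound with 40 pM IL-6 for 5 hrs at 37 C; data scaled between 300 pM IL-6 and 125 nM JAK-inhibitor controls.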
# [2] = qHTS Assay for Lipid Storage Modulators (AID 1519; calls by dose curve; note: % is set by controls: 0 for no effect and ±100 for the full control effect); conditions: Drosophila S3 cells, BODIPY lipid droplet/cell ratio, laser cytometry, cells loaded with oleic acid; activity change, negative = inhibition: at 57.5 µM (top of the series) unless noted
# Summary of the method: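 Cells seeded at 5,000 per well were treated with compounds over a concentration series and loaded with oleic acid (400 uM, as added). Lipid droplet fluorescence (488 nm excitation, 500-530 nm channel) was read by laser-scanning cytometry and normalized to 20 uM Triacsin C.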
# [3] = NFAT Signaling Pathway (AID 444; active = well fitted curve in either direction with a large enough effect, not every such curve was filed as active; inconclusive = small, poorly fitted or top-dose-only effect, or another doubt;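 note: carbachol stimulus at about its EC50 of 1 µM final; % is set by controls: 0 for no effect and ±100 for the full control effect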); conditions: Jurkat NFAT-bla M1, carbachol, beta-lactamase ratio, 5 h; at 7.69 µM (top of the series) unless noted
# Summary of the method: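 Read-out: CCF4 FRET ratio (460 nm/530 nm) after 1 h RT dye loading, used for %activity and AC50 from titration series. Cells: Jurkat NFAT-β-lactamase/M1 line, treated with compound plus 1 uM carbachol for 5 h, 37 °C.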
# [4] = qHTS Assay for Identification of Small Molecule Agonists for Hypoxia Response Element Signaling Pathway (AID 914; active = well fitted activation curve with a large enough effect in the signal ratio, with a control signal flat, not every such curve was filed as active; inconclusive = small, poorly fitted or top-dose-only effect, or effect the other way, or a change in a side signal; the % refers to the signal ratio; note: potency is the fitted concentration of half-maximal effect; for activation: % of control where 0% means no effect); conditions: ME-180 HRE-bla reporter, beta-lactamase ratio, CoCl2, 17 h; activation: stronger effect = higher value
# Summary of the method: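 ME-180 cells carrying an HRE-driven beta-lactamase reporter were treated with compounds in a titration series plus an EC50 level of CoCl2 for 17 h at 37 degrees Celsius; CCF4 readout as the 460nm/530nm ratio gave AC50 values.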
# [5] = target: Cytochrome P450 3A4 (Homo sapiens) (UniProt P08684); test: qHTS Assay for Activators of Cytochrome P450 3A4 (AID 885); note: potency is the fitted concentration of half-maximal effect; nearly all actives have a fitted effect of over 65% in size
# Summary of the method: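 Activators are scored by enhanced luminescence from CYP3A4 conversion of luciferin-PPXE (25uM, equal to KM) to luciferin, after 60 min at RT with an NADPH-regenerating system.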
# [6] = target: Cytochrome P450 3A4 (Homo sapiens) (UniProt P08684); test: qHTS Assay for Inhibitors and Substrates of Cytochrome P450 3A4 (AID 884); conditions: recombinant CYP3A4, Luciferin-PPXE luminescence; activity change, negative = inhibition: at 57.1 µM (top of the series); note: % is set by controls: 0 for no effect and ±100 for the full control effect; nearly all actives have a fitted effect of over 50% in size
# Summary of the method: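 Luminescent readout of luciferin produced by CYP3A4 (20 nM) dealkylation of Luciferin-PPXE, 25 uM (its KM). NADPH-driven reaction ran 60 min at RT after 10 min compound preincubation; data scaled to 57 uM ketoconazole as 100% inhibition.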
# [7] = target: 3',5'-cyclic-AMP phosphodiesterase 4B (Homo sapiens) (UniProt Q07343); test: qHTS Assay for Inhibitors of PDE-IV (AID 607; active = well fitted activation curve with a large enough effect in the main read-out, with a control signal flat, not every such curve was filed as active; inconclusive = small, poorly fitted or top-dose-only effect, or effect the other way, or a change in a side signal; note: % of control where 0% means no effect); conditions: HEK293 ACTOne CNG channel cells, membrane potential fluorescence; activation (PDE inhibition): at 22.9 µM (top of the series)
# Summary of the method: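 The readout is membrane depolarisation from a cAMP-sensing CNG channel, detected with a potential dye at ex 535/em 590. Cells were HEK293-derived (endogenous PDE-IV) at 1000 cells/well, titrated up to 22.9 uM final.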
# [8] = S16 Schwann cell PMP22 intronic element firefly luciferase assay (AID 624032); note: potency is the fitted concentration of half-maximal effect; nearly all actives have a fitted effect of over 30% in size
# Summary of the method: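 Luciferase reporter of PMP22 intronic-element expression in stably transfected S16 rat Schwann cells, read by ONE-Glo luminescence after 24 h compound exposure at 37 C. Activity scaled between DMSO (0%) and positive-control PTC124; concentration-effect curves quality-classified.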
# CP191 = test: qHTS profiling for inhibitors of Plasmodium falciparum proliferation (AID 504749); note: nearly all actives have a fitted effect of over 60% in size; note: potency is the fitted concentration of half-maximal effect;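 for activity, negative = inhibition: 0% = DMSO vehicle and full inhibition = artemisinin control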; conditions: P. falciparum in erythrocytes, SYBR Green DNA, 72 h; series mostly up to 28.7 µM
# Summary of the method: (§1)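 In a 72 h erythrocytic culture (37 C, humidified, 5% CO2) at 2.5% hematocrit and 0.3% starting parasitemia, compounds were tested; SYBR Green I in detergent lysis buffer stained parasite DNA overnight.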
# CP237 = test: as above; conditions: P. falciparum in erythrocytes, SYBR Green DNA, 72 h; series mostly up to 28.7 µM
# Summary of the method: as §1
# CP335 = test: as above; conditions: P. falciparum in erythrocytes, SYBR Green DNA, 72 h; series mostly up to 28.7 µM
# Summary of the method: as §1
# P93_24 = test: as above; conditions: P. falciparum in erythrocytes, SYBR Green DNA, 72 h; series mostly up to 28.7 µM
# Summary of the method: as §1
# PC15 = test: as above; conditions: P. falciparum in erythrocytes, SYBR Green DNA, 72 h; series mostly up to 28.7 µM
# Summary of the method: as §1
# TAB113 = test: as above; conditions: P. falciparum in erythrocytes, SYBR Green DNA, 72 h; series mostly up to 28.7 µM
# Summary of the method: as §1
compound,measurement,setting,value
O=C(c1csnn1)N1CCC2(CCCN(c3cccc(-c4ccccc4)c3)C2)CC1,"activity, negative = inhibition",[1],inactive: -5.72%
same,Potency,[2],inactive
CS(=O)(=O)N1CCC2(CCN(Cc3nccs3)CC2)CC1,"activity, negative = inhibition",[1],inactive: -5.91%
same,"activity change, negative = inhibition",[2],inconclusive: 6.08%
O=C(c1cc(C(F)(F)F)cc(C(F)(F)F)c1)N1CCC2(CCCN(c3ccccn3)C2)CC1,"activity change, negative = inhibition",[3],inconclusive: -48.9% [inhibitor]
same,activation,[4],inactive: 2.81%
same,"activity change, negative = inhibition",[2],inconclusive: -4.47%
COc1ccccc1CN1CCC2(CC1)CCN(C(=O)c1cccn1C)CC2,"activity change, negative = inhibition",[3],inconclusive: -68.1% [inhibitor]
same,activation,[4],inconclusive: 25.2%
same,Potency,[2],inactive
O=C(c1ccncc1)N1CCC[C@@]2(CCN(Cc3cc(C(F)(F)F)cc(C(F)(F)F)c3)C2)C1,"activity change, negative = inhibition",[3],inconclusive: -44.5% [inhibitor]
same,Potency,[4],"inconclusive: 0.126 µM [inhibitor, partial curve]"
same,"activity change, negative = inhibition",[2],inconclusive: 4.78%
O=C(Nc1cccc(F)c1)N1CCC2(CC1)CCN(C(=O)c1ccco1)CC2,"activity change, negative = inhibition",[3],inactive: 4.6%
same,Potency,[5],"inconclusive: 10 µM [activator, partial curve]"
same,"activity change, negative = inhibition",[2],inconclusive: 3.81%
O=C(c1ccco1)N1CCC2(CCN(Cc3nccs3)CC2)CC1,"activity change, negative = inhibition",[3],inconclusive: -34.7% [inhibitor]
same,Potency,[5],"inconclusive: 25.1 µM [activator, partial curve]"
same,activation,[4],inactive: -9.81%
same,Potency,[2],inactive
Cn1c(=O)c(-c2ccc(F)cc2)nc2cnc(Oc3ccccc3)nc21,"activity change, negative = inhibition",[3],inactive: 5.5%
same,Potency,[6],inactive
same,Potency,[5],"inconclusive: 2 µM [activator, full curve, poor fit]"
same,"activity change, negative = inhibition",[2],inconclusive: 6.59%
COc1ccc(C[C@@](C)(N)C(=O)O)cc1OC,"activity, negative = inhibition",[1],inactive: -1.96% [at 17.2 µM]
same,Potency,[7],inactive
same,activation,[4],inconclusive: 152%
same,Potency,[2],inactive
same,Potency,[8],"inconclusive: 15.5 µM [inhibitor, single point]"
same,Potency,CP191,inactive
same,Potency,CP237,inactive
same,Potency,CP335,"inconclusive: 1.81 µM [inhibitor, single point]"
same,Potency,P93_24,inactive
same,Potency,PC15,inactive
same,Potency,TAB113,inactive

# 2 entries from above, with bars between the fields.
compound | measurement | setting | value
Cn1c(=O)c(-c2ccc(F)cc2)nc2cnc(Oc3ccccc3)nc21 | Potency | [6] | inactive
same | Potency | [5] | inconclusive: 2 µM [activator, full curve, poor fit]
